Experimental data from patent US20250076311A1.
No constants are given. Whether binding was seen depends on the method and setting. Some entries that bind do so weakly or less than the wild type. Tags and fused reporters may be left off the sequences shown.

Tests used:
[1] = target: T1, GST-hMSTN 41-140aa (human) (UniProt O14793); assay: drawn table summarising the Western blots of Figure 22C (filled cell = fragment detected)
T1 sequence: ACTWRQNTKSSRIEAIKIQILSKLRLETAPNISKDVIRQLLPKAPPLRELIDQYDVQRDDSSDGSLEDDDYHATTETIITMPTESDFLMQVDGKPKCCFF

[2] = target: T2, GST-hMSTN 81-180aa (human); assay: as above
T2 sequence: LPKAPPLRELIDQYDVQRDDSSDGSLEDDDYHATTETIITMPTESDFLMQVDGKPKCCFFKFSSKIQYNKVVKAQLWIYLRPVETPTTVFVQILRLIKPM

[3] = target: T3, GST-hMSTN 21-120aa (human) (UniProt O14793); assay: as above
T3 sequence: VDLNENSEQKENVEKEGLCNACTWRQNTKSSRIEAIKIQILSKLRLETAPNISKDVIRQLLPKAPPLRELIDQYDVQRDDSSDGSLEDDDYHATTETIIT

[4] = target: T4, GST-hMSTN 61-160aa (human) (UniProt O14793); assay: as above
T4 sequence: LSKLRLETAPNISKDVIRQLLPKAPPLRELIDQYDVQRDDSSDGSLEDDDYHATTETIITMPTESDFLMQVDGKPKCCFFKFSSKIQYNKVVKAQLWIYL

[5] = target: T1, GST-hMSTN 41-140aa (human); assay: Western blot with the antibody as probe on GST-tagged 100-amino-acid fragments of the human latent myostatin propeptide expressed in E. coli BL21 (lanes 1-8), GST control (lane 9) and human latent myostatin 100 ng (lane 10)
[6] = target: T2, GST-hMSTN 81-180aa (human); assay: as above
[7] = target: T4, GST-hMSTN 61-160aa (human); assay: as above
[8] = target: T1, GST-hMSTN 41-140aa (human); assay: Western blot, GST-tagged fragments
[9] = target: T2, GST-hMSTN 81-180aa (human); assay: Western blot, GST-tagged fragments
[10] = target: T3, GST-hMSTN 21-120aa (human); assay: Western blot, GST-tagged fragments
[11] = target: T4, GST-hMSTN 61-160aa (human); assay: Western blot, GST-tagged fragments

Measured: binding

B1: MS_MST1032Ha-G1m/MST1032La-k0MC (antibody, human IgG1, kappa, V domains shown)
VH: QSLEESGGRLVTPGGSLTVTCRVSGIDLSSYDISWVRQAPGKGLEWIGIISYAGSTYYASWAKGRFTISKTSTTVDLKMTSLTTEDTATYFCARGVPAYSTGGDLWGPGTLVTVSS
VL: AQVLTQTASSVSAAVGGTVTINCQSSQSVYDNNWLSWFQQKPGQPPKLLIYWASTLASGVPSRFKGSGSGTQFTLTISDLECDDAATYYCAGGYGGGLYAFGGGTKVEIKR
binds: [1] | [2] | [3] | [4] | [5] | [6] | [7] | [8] | [9] | [10] | [11]
